Some results come without the dose or concentration used.
Tested on: patients suffering from brain injury (brain trauma) with increased intracranial pressure
Experiment: Treatment of increased intracranial pressure caused by brain trauma
Format: in vivo, human
Method: For this purpose, the composition of the invention or the mannitol was administered (infused) to a group of each twelve patients and the ICP was measured every 15 minutes.
The results of this study, in which 12 patients were either treated with mannitol or the hypertonic lactate solution of the invention, are shown in FIGS. 1 to 4 as well as in Tables 2 to 5.

OC[C@@H](O)[C@@H](O)[C@H](O)[C@H](O)CO [mannitol] was tested, and the “hematocrite and hemoglobin level relative to original values” (after infusion (FIG. 3)) was 97% and the “Osmotic Pressure after treatment” value (after treatment) was 302 ± 2.5 mosm/kg.
